Laboratory results taken from PubChem BioAssay AID330 (DTP/NCI, 2004).
The list is a part of this screen's results and no random one: it gathers tests that were run many times, whatever their T/C, doses with no T/C, and many T/C values between a quarter and a half above the control. Further doses and runs are listed elsewhere. T/C is the treated group as % of the vehicle group. Some entries give survivors of the animals treated and no T/C: the source holds a T/C of zero for them, seemingly a mark for toxic or unscored doses. Some survivor counts are full or nearly so, which does not show that the dose was tolerated: the source hardly ever lists a survival T/C far under the control, and the zero likely stands for such cases as well. Survivors were counted at the toxicity check, usually on the fifth day, unless a day is given; later deaths do not show. Schedule codes are those of the source, taken here to give the interval after Q, in days (D) or hours (H), and the number of doses after X. Where survival is the endpoint, this PubChem deposit counts one and a half times the control or more as active, and values a quarter to a half above the control carry no call in these data; other NCI protocols may use other cut-offs. Some doses were run more than once; the results are listed from low to high. Some T/C values are followed by the survivors on the day toxicity was checked, most often the fifth; where none is given, no animal had died by that day.

System: P388 leukemia ip, CD2F1 mice, survival T/C
Assay: NCI In Vivo Anticancer Drug Screen. Data for tumor model P388 Leukemia (intraperitoneal) in CD2F1 (CDF1) mice
Conditions: T/C endpoint: median survival time, higher T/C = longer survival
[1] = dose: 12.5 mg/kg/injection, schedule: Q01DX009 (ip), vehicle: saline with Tween-80
[2] = dose: 100.0 mg/kg/injection, schedule: Q01DX005 (ip), vehicle: saline with Tween-80
[3] = dose: 200.0 mg/kg/injection, schedule: Q01DX005 (ip), vehicle: saline with Tween-80

Compound: CC1(C)N=C(N)N=C(N)N1c1cccc(CCCCOc2ccccc2)c1
- T/C (dose: 8.0 mg/kg/injection, schedule: Q01DX009 (ip), vehicle: saline with Tween-80): 137 % of control
- T/C (dose: 12.0 mg/kg/injection, schedule: Q01DX009 (ip), vehicle: saline with Tween-80): 133 % of control
- survivor count (dose: 25.0 mg/kg/injection, schedule: Q04DX003 (ip), vehicle: saline with Tween-80): 6 of 6

Compound: O=C(CCN1CCCCC1)c1ccc(C(F)(F)F)cc1
- survivor count [1]: 2 of 6
- survivor count (dose: 25.0 mg/kg/injection, schedule: Q01DX009 (ip), vehicle: saline with Tween-80): 0 of 6
- survivor count (dose: 50.0 mg/kg/injection, schedule: Q01DX009 (ip), vehicle: saline with Tween-80): 0 of 6
- survivor count (dose: 100.0 mg/kg/injection, schedule: Q01DX009 (ip), vehicle: saline with Tween-80): 0 of 6

Compound: COc1ccc2c(c1O)C13CC=NC(C2)C1C(C)(C)C(C)(C)C(=O)C3 (stereo not drawn)
- survivor count [2]: 5 of 5
- survivor count [3]: 0 of 5

Compound: COc1cc2c(cc1OC(C)=O)C(=O)C(Br)CCC2 (stereo not drawn)
- survivor count (dose: 400.0 mg/kg/injection, schedule: Q01DX009 (ip), vehicle: saline with Tween-80): 6 of 6

Compound: COc1cc2c(cc1OC)[C@@H](CO)[C@H]1c3cc4c(cc3CCN1C2)OCO4
- T/C (dose: 400.0 mg/kg/injection, schedule: Q04DX003 (ip), vehicle: distilled water + Tween-80): 126 and 129 % of control

Compound: Cn1c(=O)[nH]c2nnc(-c3ccccc3)nc2c1=O
- survivor count (dose: 200.0 mg/kg/injection, schedule: Q01DX009 (ip), vehicle: Klucel (hydroxypropylcellulose) (HPC)): 0 of 6

Compound: CC(=O)NC(SC12CC3CC(CC(C3)C1)C2)C(/C=C/CC=O)OC(C)=O (stereo not drawn)
- survivor count (dose: 100.0 mg/kg/injection, schedule: Q04DX003 (ip), vehicle: Klucel (hydroxypropylcellulose) (HPC)): 5 of 6
- survivor count (dose: 200.0 mg/kg/injection, schedule: Q04DX003 (ip), vehicle: Klucel (hydroxypropylcellulose) (HPC)): 0 of 6
- survivor count (dose: 400.0 mg/kg/injection, schedule: Q04DX003 (ip), vehicle: Klucel (hydroxypropylcellulose) (HPC)): 0 of 6

Compound: CS(=O)(=O)O/C=C1/CCOC1=O
- T/C (dose: 25.0 mg/kg/injection, schedule: Q01DX009 (ip), vehicle: water): 126 % of control
- T/C (dose: 50.0 mg/kg/injection, schedule: Q01DX009 (ip), vehicle: water): 125 [5 of 6 alive] and 132 % of control
- survivor count (dose: 100.0 mg/kg/injection, schedule: Q01DX009 (ip), vehicle: water): 1 of 6
- survivor count (dose: 200.0 mg/kg/injection, schedule: Q01DX009 (ip), vehicle: water): 0 of 6

Compound: COC1NC(=O)NC(=O)C1=[N+]=[N-] (stereo not drawn)
- T/C (dose: 0.62 mg/kg/injection, schedule: Q01DX009 (ip), vehicle: saline): 131 % of control
- T/C (dose: 1.25 mg/kg/injection, schedule: Q01DX009 (ip), vehicle: saline): 140 % of control
- T/C (dose: 2.5 mg/kg/injection, schedule: Q01DX009 (ip), vehicle: saline sonified): 140 % of control
- T/C (dose: 3.3 mg/kg/injection, schedule: Q01DX009 (ip), vehicle: saline with Tween-80): 141 % of control
- T/C (dose: 300.0 micrograms/kg/injection, schedule: Q01DX009 (ip), vehicle: saline): 131 % of control

Compound: O=[N+]([O-])c1c[nH]n2c([N+](=O)[O-])cnc12
- survivor count (dose: 3.13 mg/kg/injection, schedule: Q01DX009 (ip), vehicle: other): 6 of 6
- survivor count (dose: 25.0 mg/kg/injection, schedule: Q01DX009 (ip), vehicle: other): 3 of 6
- survivor count (dose: 50.0 mg/kg/injection, schedule: Q01DX009 (ip), vehicle: other): 1 of 6

Compound: Clc1cc(CBr)c(CBr)cc1Cl
- survivor count [1]: 4 of 6
- survivor count (dose: 50.0 mg/kg/injection, schedule: Q04DX003 (ip), vehicle: saline with Tween-80): 5 of 6

Compound: CCCCCCNc1nc(NCCCCCC)c2[nH]c(NCCCCCC)nc2n1
- T/C (dose: 50.0 mg/kg/injection, schedule: Q01DX005 (ip), vehicle: saline with Tween-80): 131 % of control
- T/C [2]: 127 and 129 % of control
- T/C [3]: 125 and 127 % of control
- T/C (dose: 400.0 mg/kg/injection, schedule: Q01DX005 (ip), vehicle: saline with Tween-80): 127 % of control
